These are yes or no findings as the source states them, for the method shown. In cells and extracts the contact can be indirect. These calls come from enrichment with a bait or labelling near it, and not all partners need be listed. Sequences can lack the tags named with a protein.
Target: T1, His‐tagged CDC37 (His‐CDC37) (human) (UniProt Q16543)
T1 sequence: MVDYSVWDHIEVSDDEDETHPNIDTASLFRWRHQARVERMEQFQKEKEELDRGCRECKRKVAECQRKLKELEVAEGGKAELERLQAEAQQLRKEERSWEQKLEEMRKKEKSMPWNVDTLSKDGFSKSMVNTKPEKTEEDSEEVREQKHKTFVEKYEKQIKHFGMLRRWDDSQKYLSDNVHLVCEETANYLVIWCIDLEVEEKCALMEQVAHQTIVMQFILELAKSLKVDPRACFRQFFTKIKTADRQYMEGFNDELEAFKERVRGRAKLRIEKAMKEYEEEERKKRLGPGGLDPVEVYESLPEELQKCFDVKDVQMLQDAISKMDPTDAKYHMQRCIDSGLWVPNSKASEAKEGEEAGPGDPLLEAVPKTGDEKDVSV
Assay: affinity purification with mass spectrometry; anti‐His immunoprecipitate of DCs treated with EVs of His‐CDC37‐overexpressing SKBR3 cells and pulsed with tumor lysates; LC-MS/MS

Chains of the proteins cited; added tags and fusions are not shown. Residues count along the entry.
UniProt P15941, residues 24-1255: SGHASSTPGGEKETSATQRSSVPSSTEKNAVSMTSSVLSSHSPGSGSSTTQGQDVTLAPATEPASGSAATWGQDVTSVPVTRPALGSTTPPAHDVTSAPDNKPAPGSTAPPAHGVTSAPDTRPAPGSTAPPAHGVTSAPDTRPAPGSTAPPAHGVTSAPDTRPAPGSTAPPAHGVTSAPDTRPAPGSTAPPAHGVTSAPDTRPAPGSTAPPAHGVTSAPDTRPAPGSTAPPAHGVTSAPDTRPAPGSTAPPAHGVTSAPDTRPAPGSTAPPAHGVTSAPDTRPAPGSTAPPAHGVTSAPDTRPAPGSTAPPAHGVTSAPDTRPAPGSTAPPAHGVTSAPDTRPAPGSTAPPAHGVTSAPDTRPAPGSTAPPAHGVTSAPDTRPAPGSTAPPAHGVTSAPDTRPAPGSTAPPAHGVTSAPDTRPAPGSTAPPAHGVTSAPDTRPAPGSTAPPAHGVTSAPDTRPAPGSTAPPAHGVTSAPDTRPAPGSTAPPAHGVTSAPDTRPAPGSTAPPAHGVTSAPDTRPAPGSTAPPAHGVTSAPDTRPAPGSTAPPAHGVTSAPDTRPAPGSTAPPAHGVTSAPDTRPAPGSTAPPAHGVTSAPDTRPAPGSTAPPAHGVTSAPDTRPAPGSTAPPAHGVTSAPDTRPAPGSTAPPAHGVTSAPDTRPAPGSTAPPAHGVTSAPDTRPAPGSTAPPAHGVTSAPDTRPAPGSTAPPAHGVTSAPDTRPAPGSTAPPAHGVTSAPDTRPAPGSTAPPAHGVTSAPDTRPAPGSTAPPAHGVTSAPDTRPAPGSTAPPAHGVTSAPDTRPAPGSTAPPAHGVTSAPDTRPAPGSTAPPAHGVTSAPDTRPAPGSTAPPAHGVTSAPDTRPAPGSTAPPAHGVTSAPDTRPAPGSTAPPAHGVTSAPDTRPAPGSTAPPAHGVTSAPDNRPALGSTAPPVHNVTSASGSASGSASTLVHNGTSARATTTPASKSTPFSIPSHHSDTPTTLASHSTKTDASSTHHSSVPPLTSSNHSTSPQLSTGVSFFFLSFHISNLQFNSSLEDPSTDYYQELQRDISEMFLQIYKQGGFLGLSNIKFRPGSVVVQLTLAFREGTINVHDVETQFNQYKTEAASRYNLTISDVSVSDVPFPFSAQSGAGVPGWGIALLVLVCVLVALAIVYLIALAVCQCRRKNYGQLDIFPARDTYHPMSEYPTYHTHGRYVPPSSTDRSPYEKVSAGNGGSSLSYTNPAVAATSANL

MUC1 of tumor lysates (from UniProt P15941 24-1255)
binding: binds

Source: article PMC12849997
